According to PubChem BioAssay AID540256 (National Center for Advancing Translational Sciences (NCATS), 2011):
About 3,700 (1.2%) of roughly 300,000 compounds were called active. This list was built around the results that the source calls inconclusive (neither active nor inactive); the mix of calls is not that of the screen. Calls come from the whole dose curve; tested in HEK293 cells. Potencies beside an inconclusive call are fits to weak or partial responses and may not hold up.

Assay: qHTS for Inhibitors of binding or entry into cells for Lassa Virus; note: nearly all actives have a fitted effect of over 50% in size
Conditions: Lassa virus pseudotype entry inhibition, cell reporter; activity change, negative = inhibition: at 37.9 µM (top of the series) unless noted
% is set by controls: 0 for no effect and ±100 for the full control effect; potency is the fitted concentration of half-maximal effect.

SMILES | Potency | activity change, negative = inhibition
Cc1ccc(S(=O)(=O)NCCc2nnc3ccc(SCc4ccc(F)cc4)nn23)cc1 | inconclusive: 35.5 µM [inhibitor, single point] | –
Cc1cnn(-c2cc(N/N=C/c3ccccc3F)ncn2)c1 | – | inactive: 2.55%
CN(C(=O)COC(=O)c1ccccc1OCc1ccc(Cl)cc1)c1c(N)n(Cc2ccccc2)c(=O)[nH]c1=O | inconclusive: 35.5 µM [inhibitor, single point] | –
CCc1nnc(NS(=O)(=O)c2ccc(NCc3ccccc3O)cc2)s1 | – | inactive: 4.59%
CCC(C(=O)Nc1cc(OC)ccc1OC)n1c(C)c2cnn(-c3ccccc3)c(=O)c2c1C (stereo not drawn) | – | inactive: 22.1% [at 46.1 µM]
O=C(CNC(=O)c1ccc(Cl)cc1)OCC(=O)N1CCCC1 | – | inactive: 18.3%
Cc1cccc(C(C)C)c1NC(=O)C(C)OC(=O)Cc1n[nH]c(=O)c2ccccc12 (stereo not drawn) | – | inactive: 4.8%
CC(C)(C)c1cc(C(=O)N/N=C/c2ccc(O)cc2)n(-c2ccccc2)n1 | inconclusive: 7.94 µM [inhibitor, partial curve, poor fit] | –
O=C1c2cccc3cccc(c23)C(=O)N1CCN1CCN(C(=S)Nc2ccc(Cl)cc2)CC1 | – | inactive: 0.733%
CCOC(=O)c1c(N2C(=O)C=CC2=O)sc(C)c1C | inconclusive: 29.1 µM [inhibitor, single point] | –
N/C(=N\OC(=O)C1CCCCC1)c1cccc([N+](=O)[O-])c1 | inconclusive: 16.4 µM [activator, single point] | –
COCC(C)n1c(C)cc(C(=O)CSc2nnc(Nc3ccccc3F)s2)c1C (stereo not drawn) | inconclusive: 35.5 µM [inhibitor, single point] | –
COc1ccc(CC(=O)NCC(c2cccs2)S(=O)(=O)c2ccc(Cl)cc2)cc1 (stereo not drawn) | inconclusive: 10 µM [inhibitor, partial curve, poor fit] | –
Cc1n[nH]c(=O)c2c(NC(=O)CSc3nc4ccccc4c(=O)n3C(C)C)oc(C)c12 | inconclusive: 10 µM [inhibitor, partial curve, poor fit] | –
CCOC(=O)C(C)Sc1cc(CS(=O)(=O)c2ccccc2)nc(-c2ccccc2)n1 (stereo not drawn) | – | inactive: -4.13%
O=C(Nc1cc(C(F)(F)F)ccc1Cl)c1cnn(-c2ccccc2)c1-n1cccc1 | – | inactive: -1.57% [at 46.1 µM]
Cc1nn(-c2ccc(F)cc2)c(C)c1NS(=O)(=O)c1ccc2ccccc2c1 | inconclusive: 25.9 µM [inhibitor, partial curve, poor fit] | –
CCCCNS(=O)(=O)c1ccc2nc(SCC(=O)Nc3ccccc3Cl)[nH]c2c1 | inconclusive: 11.2 µM [inhibitor, partial curve, poor fit] | –
CCc1ccc(NC(=O)C(CC)Sc2nc3cc4c(cc3c(=O)n2Cc2ccco2)OCO4)cc1 (stereo not drawn) | inconclusive: 23.1 µM [inhibitor, partial curve, poor fit] | –
CC1CCN(CCOc2ccccc2-c2ccccc2)CC1 | inconclusive: 3.55 µM [inhibitor, partial curve, poor fit] | –
CCN(CC)CCNC(=O)c1ccc(NC(=O)c2ccccc2-c2ccc(C(F)(F)F)cc2)cc1 | inconclusive: 25.1 µM [inhibitor, single point] | –
COc1ccc(/C=C2/CSC/C(=C/c3ccc(OC)c(OC)c3)C2=O)cc1OC | active: 3.16 µM | –
COc1ccc(S(=O)(=O)Cc2ccc(C(=O)NC3CCC(C)CC3)o2)cc1 (stereo not drawn) | inconclusive: 11.2 µM [inhibitor, partial curve, poor fit] | –

Grouped by structure: those above containing sulfur (13)
SMILES | Potency | activity change, negative = inhibition
Cc1ccc(S(=O)(=O)NCCc2nnc3ccc(SCc4ccc(F)cc4)nn23)cc1 | inconclusive: 35.5 µM [inhibitor, single point] | –
CCc1nnc(NS(=O)(=O)c2ccc(NCc3ccccc3O)cc2)s1 | – | inactive: 4.59%
O=C1c2cccc3cccc(c23)C(=O)N1CCN1CCN(C(=S)Nc2ccc(Cl)cc2)CC1 | – | inactive: 0.733%
CCOC(=O)c1c(N2C(=O)C=CC2=O)sc(C)c1C | inconclusive: 29.1 µM [inhibitor, single point] | –
COCC(C)n1c(C)cc(C(=O)CSc2nnc(Nc3ccccc3F)s2)c1C (stereo not drawn) | inconclusive: 35.5 µM [inhibitor, single point] | –
COc1ccc(CC(=O)NCC(c2cccs2)S(=O)(=O)c2ccc(Cl)cc2)cc1 (stereo not drawn) | inconclusive: 10 µM [inhibitor, partial curve, poor fit] | –
Cc1n[nH]c(=O)c2c(NC(=O)CSc3nc4ccccc4c(=O)n3C(C)C)oc(C)c12 | inconclusive: 10 µM [inhibitor, partial curve, poor fit] | –
CCOC(=O)C(C)Sc1cc(CS(=O)(=O)c2ccccc2)nc(-c2ccccc2)n1 (stereo not drawn) | – | inactive: -4.13%
Cc1nn(-c2ccc(F)cc2)c(C)c1NS(=O)(=O)c1ccc2ccccc2c1 | inconclusive: 25.9 µM [inhibitor, partial curve, poor fit] | –
CCCCNS(=O)(=O)c1ccc2nc(SCC(=O)Nc3ccccc3Cl)[nH]c2c1 | inconclusive: 11.2 µM [inhibitor, partial curve, poor fit] | –
CCc1ccc(NC(=O)C(CC)Sc2nc3cc4c(cc3c(=O)n2Cc2ccco2)OCO4)cc1 (stereo not drawn) | inconclusive: 23.1 µM [inhibitor, partial curve, poor fit] | –
COc1ccc(/C=C2/CSC/C(=C/c3ccc(OC)c(OC)c3)C2=O)cc1OC | active: 3.16 µM | –
COc1ccc(S(=O)(=O)Cc2ccc(C(=O)NC3CCC(C)CC3)o2)cc1 (stereo not drawn) | inconclusive: 11.2 µM [inhibitor, partial curve, poor fit] | –

Shown in CSV form: 2 of the compounds above
SMILES,Potency,"activity change, negative = inhibition"
CN(C(=O)COC(=O)c1ccccc1OCc1ccc(Cl)cc1)c1c(N)n(Cc2ccccc2)c(=O)[nH]c1=O,"inconclusive: 35.5 µM [inhibitor, single point]",–
CCc1nnc(NS(=O)(=O)c2ccc(NCc3ccccc3O)cc2)s1,–,inactive: 4.59%

Later entries

SMILES | Potency | activity change, negative = inhibition
O=C(c1ccc(Cl)c(S(=O)(=O)N2CCc3ccccc32)c1)N1CCN(c2ccccc2O)CC1 | inconclusive: 25.1 µM [inhibitor, single point] | –
CC(C)c1ccc(N2C(=O)N(Cc3ccccc3Cl)c3ccccc3S2(=O)=O)cc1 | – | inactive: -18.5% [at 46.1 µM]
COc1ccc(C2=NOC(COc3ccc4c(C)cc(=O)oc4c3)C2)c(OC)c1 (stereo not drawn) | inconclusive: 7.94 µM [inhibitor, partial curve, poor fit] | –
Cc1cc(C)c(NC(=O)c2ccc[n+](Cc3ccc([N+](=O)[O-])cc3)c2)c(C)c1 | inconclusive: 0.282 µM [inhibitor, partial curve, poor fit] | –
CCOC(=O)c1c(C)[nH]c(C(=O)OC(C)C(=O)NCc2ccccc2)c1C (stereo not drawn) | inconclusive: 2 µM [inhibitor, partial curve, poor fit] | –
Clc1nc(CN2CCCCC2)nc2sc3c(c12)CCC3 | inconclusive: 35.5 µM [inhibitor, single point] | –
COc1ccc(-n2c(=O)c3sc4ccccc4c3n(CC(=O)NC3CCCCC3)c2=O)cc1 | – | inactive: 0.655% [at 46.1 µM]
O=[N+]([O-])c1ccc(COc2cccc(CNc3ccc(Br)cc3)c2)cc1 | – | inactive: 27.1%
CC(C)OC(=O)CSc1nc2ccccc2s1 | – | inactive: 7.21%
COc1ccc(NC(=O)c2ccc(C)cc2)c[n+]1[O-] | – | inactive: -26.6%
COc1cc(C=O)cc(Cl)c1OC(=O)N1CCOCC1 | – | inactive: 10.5% [at 46.1 µM]
CCN(Cc1ccccc1)S(=O)(=O)c1ccc(F)c(C(=O)Nc2cc(C(F)(F)F)ccc2Cl)c1 | – | inactive: -1.66% [at 46.1 µM]
COc1ccc(-c2csc(N3CCSCC3)n2)cc1 | inconclusive: 35.5 µM [inhibitor, single point] | –
COc1ccc(NC(=S)N(CCc2c(C)[nH]c3ccc(C)cc23)Cc2cccs2)cc1 | inconclusive: 13 µM [inhibitor, partial curve, poor fit] | –
O=C(O)CSC1CC(=O)N(c2cccc(Cl)c2)C1=O (stereo not drawn) | – | inactive: -3.03%
N=c1ccn(Cc2ccc(Cl)cc2)cc1 | inconclusive: 35.5 µM [inhibitor, single point] | –
COc1ccc(CNC(=O)c2ccc(-c3cc(-c4nnc(C)o4)ccc3C)cc2)cc1 | inconclusive: 12.5 µM [inhibitor, partial curve, poor fit] | –
CCOc1ccc(CCNC(=O)c2cnc3sc(N4CCCCC4)nn3c2=O)cc1 | inconclusive: 0.316 µM [inhibitor, full curve, poor fit] | –
CCOC(=O)Cc1c(C)nc2c(-c3cccc(Br)c3)c[nH]n2c1=O | active: 15.8 µM | –
CCOCCCNC(=O)CSc1nc2nc(C)c(Cc3ccccc3)c(C)n2n1 | – | inactive: -7.57% [at 46.1 µM]
O=C(c1ccc2c(c1)OCO2)N(Cc1cccs1)C1(C(=O)NC2CCCCC2)CCCCC1 | inconclusive: 31.6 µM [inhibitor, single point] | –
O=C(Nc1nnc(-c2ccco2)s1)C1CCCCC1 | inconclusive: 2.82 µM [activator, single point] | –
COc1ccccc1N1CCN(C(=O)c2cnc(N3CCOCC3)c3ccccc23)CC1 | inconclusive: 35.5 µM [inhibitor, single point] | –

SMILES | Potency | activity change, negative = inhibition
CN(C)S(=O)(=O)c1cccc(C(=O)NCc2cccs2)c1 | inconclusive: 31.6 µM [inhibitor, single point] | –
Cc1[nH]n(-c2ccccc2)c(=O)c1/C=N/Nc1nncc(-c2ccccc2)n1 | active: 4.11 µM | –
CCC1CCCCN1CCCNC(=O)Cn1cnc2sc(C)c(S(=O)(=O)N3CC(C)CC(C)C3)c2c1=O (stereo not drawn) | – | inactive: 5.09%
Nn1cnnc1SCC(=O)Nc1ccc2c(c1)OCCO2 | – | inactive: 19.8%
CCOC(=O)c1cc2c(ccn2C)n1Cc1ccc(C#N)cc1 | inconclusive: 32.6 µM [inhibitor, single point] | –
Cc1cccc(N(CC(N)=O)C2SC(=O)N(Cc3cccc(C(=O)O)c3)C2=O)c1 (stereo not drawn) | – | inactive: 25.8% [at 46.1 µM]
CC(Cc1ccco1)NC(=O)c1ccc(C(F)(F)F)cc1 (stereo not drawn) | inconclusive: 11.2 µM [inhibitor, single point] | –
Cc1cc(C(=O)COC(=O)[C@H](C)NC(=O)c2ccco2)c(C)n1Cc1ccco1 | – | inactive: 3.64%
C#CCSc1nnc(-c2ccc(C)cc2)o1 | inconclusive: 11.2 µM [inhibitor, partial curve, poor fit] | –
COc1ccc(CNC(=O)Cn2cnc3c(=O)n(C)c(=O)n(C)c32)cc1 | inconclusive: 29.1 µM [inhibitor, single point] | –
CCOC(=O)c1sc2c(c1C)C(c1cccs1)C1=C(CCCC1=O)N2 (stereo not drawn) | inconclusive: 20 µM [inhibitor, partial curve, poor fit] | –
CN(CC1COc2ccccc2O1)C(=O)c1cccc(S(=O)(=O)N2CCCC2)c1 (stereo not drawn) | – | inactive: 6.01%
COC(=O)c1ccc([C@H]2Nc3ccc(S(=O)(=O)Nc4cccc(C)c4)cc3[C@H]3C=CC[C@H]32)cc1 | inconclusive: 22.4 µM [activator, single point] | –
Cc1nn(-c2ccccc2)c(C)c1NC(=O)COC(=O)c1cccc(OC(F)F)c1 | – | inactive: 7.46%
Cc1ccc(S(=O)(=O)N2CCN(C(=O)c3c(-c4ccccc4)noc3C)CC2)cc1C | inconclusive: 11.2 µM [inhibitor, partial curve, poor fit] | –
Nc1nc(C2CC2)c(Sc2sc(N)nc2C2CC2)s1 | active: 2.51 µM | –
Cn1c(=O)n(CC(=O)OCc2ccccc2)c(=O)c2c1nc1n2CCCN1C1CCCCC1 | inconclusive: 8.91 µM [inhibitor, partial curve] | –
O=C(COc1ccc(Cl)cc1Cl)Nn1c(=S)[nH]c2ncccc2c1=O | inconclusive: 3.16 µM [inhibitor, partial curve, poor fit] | –
CC(CCN1CCCCc2nc(C)c(C)cc21)=NO[C@@H](C)CN1CCCCc2nc(C)c(C)cc21 | inconclusive: 0.0042 µM [inhibitor, full curve, poor fit] | –
COc1ccc(CNC(=O)c2cc3c(=O)n(C)c4ccccc4c3n2C)c(OC)c1 | inconclusive: 14.1 µM [activator, partial curve, poor fit] | –
O=C(CCc1ccccc1)NC(c1cccs1)c1cc(Cl)c2cccnc2c1O (stereo not drawn) | active: 2.82 µM | –
O=[N+]([O-])c1ccc(/C=N/n2cnc3ccccc32)s1 | inconclusive: 3.98 µM [inhibitor, partial curve, poor fit] | –
